Measurements published in publication PMC7683537.

Chains of the proteins cited; added tags and fusions are not shown. Lines headed by an entry give the natural chain unless they say otherwise; changes in a name come on top.
UniProt P28033: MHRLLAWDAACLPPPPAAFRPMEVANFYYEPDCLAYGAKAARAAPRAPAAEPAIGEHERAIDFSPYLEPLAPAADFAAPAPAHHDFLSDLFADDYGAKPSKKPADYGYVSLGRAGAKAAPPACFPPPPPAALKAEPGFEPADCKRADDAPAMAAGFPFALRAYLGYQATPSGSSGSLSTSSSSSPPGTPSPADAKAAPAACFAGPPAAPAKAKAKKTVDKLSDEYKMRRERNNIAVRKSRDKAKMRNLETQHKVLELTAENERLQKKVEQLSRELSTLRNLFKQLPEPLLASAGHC
UniProt Q91X20: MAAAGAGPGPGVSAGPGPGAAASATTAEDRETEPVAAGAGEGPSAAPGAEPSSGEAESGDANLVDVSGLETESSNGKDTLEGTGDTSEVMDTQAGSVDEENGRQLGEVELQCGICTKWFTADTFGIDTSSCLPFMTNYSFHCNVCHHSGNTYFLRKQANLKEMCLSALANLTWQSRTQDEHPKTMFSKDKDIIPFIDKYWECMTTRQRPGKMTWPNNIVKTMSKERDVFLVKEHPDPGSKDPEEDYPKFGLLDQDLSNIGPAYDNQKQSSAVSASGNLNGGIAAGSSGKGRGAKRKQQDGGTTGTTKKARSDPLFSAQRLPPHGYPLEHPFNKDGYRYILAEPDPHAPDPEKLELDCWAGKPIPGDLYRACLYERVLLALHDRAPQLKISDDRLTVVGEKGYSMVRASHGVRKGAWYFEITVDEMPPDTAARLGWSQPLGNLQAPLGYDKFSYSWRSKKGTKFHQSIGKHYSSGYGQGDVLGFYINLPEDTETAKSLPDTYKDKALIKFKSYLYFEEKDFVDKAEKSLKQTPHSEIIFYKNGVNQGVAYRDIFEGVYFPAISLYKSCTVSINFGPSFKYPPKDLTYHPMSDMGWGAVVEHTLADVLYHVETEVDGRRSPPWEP
UniProt Q99LT0: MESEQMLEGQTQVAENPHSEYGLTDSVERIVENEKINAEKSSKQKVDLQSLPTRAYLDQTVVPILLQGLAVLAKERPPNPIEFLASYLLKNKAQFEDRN
UniProt Q8BX09: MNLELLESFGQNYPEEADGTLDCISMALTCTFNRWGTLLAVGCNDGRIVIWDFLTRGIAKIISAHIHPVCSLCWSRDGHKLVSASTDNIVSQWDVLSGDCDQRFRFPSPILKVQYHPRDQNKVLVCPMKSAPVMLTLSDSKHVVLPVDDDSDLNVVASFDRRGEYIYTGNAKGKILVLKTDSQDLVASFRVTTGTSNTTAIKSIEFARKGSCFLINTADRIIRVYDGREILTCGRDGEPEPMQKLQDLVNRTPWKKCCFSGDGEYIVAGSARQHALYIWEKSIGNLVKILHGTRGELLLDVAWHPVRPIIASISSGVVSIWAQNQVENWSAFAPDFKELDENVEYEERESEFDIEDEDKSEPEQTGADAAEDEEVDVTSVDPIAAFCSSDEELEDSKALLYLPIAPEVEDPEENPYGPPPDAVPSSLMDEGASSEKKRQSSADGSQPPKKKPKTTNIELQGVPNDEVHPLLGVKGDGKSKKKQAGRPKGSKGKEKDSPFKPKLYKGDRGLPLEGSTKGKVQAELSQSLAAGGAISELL

These substances were tested against C/EBPβ (transfected into HEK293T cells) (UniProt P28033) (assay: co-IP; HEK293T cells cotransfected with C/EBPβ, one of ASH2L, DPY30, RBBP5 or WDR5, and full length lncLy6C or lncLy6C with mutated m6A sites (Mut1-Mut4); isotypic control).

| binding | Substance |
| --- | --- |
| binds | ASH2L (transfected into HEK293T cells) (from UniProt Q91X20 1-623) |
| binds | DPY30 (transfected into HEK293T cells) (from UniProt Q99LT0 1-99) |
| binds | RBBP5 (transfected into HEK293T cells) (from UniProt Q8BX09 1-538) |

No constants are given. Whether binding was seen depends on the method and setting. Binding seen in cells or lysates may run through a third protein. A result given as binding can be weak or reduced; the word gives no strength.
